The text below walks through data of PubChem BioAssay AID2685 (National Center for Advancing Translational Sciences (NCATS), 2010).

This is one part of the list. Further columns of the screen follow, without active or inactive calls. The list favours compounds with an active or inconclusive main result. The note in brackets gives the kind of curve behind each potency; many fits are weak.

This experiment is described as follows: qHTS Assay for Lipid Storage Modulators in Drosophila S3 Cells.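 On cell number change: cells counted by Cell Tracker Red CMTPX staining in the red channel.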 To be noted: BODIPY lipid droplet fluorescence, 18-24 h; for cell number change: measured here: cell count max response, cells fed with added oleic acid. Put shortly:
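Drosophila S3 cells loaded with oleic acid (400 uM, as added) and compounds at several concentrations; lipid droplets imaged by 488-nm laser-scanning cytometry, 500–530 nm intensity and object ratio to cell channel. Percent activity normalized to 20 uM Triacsin C.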
For orientation: In qHTS, concentration-response curves come from the screen itself.

The mark [1] stands for this setting: measured here: lipid fluorescence (Fed channel) AC50, cells fed with added oleic acid.
Setting [2] is: measured here: cell number channel AC50, cells fed with added oleic acid.

On to `COc1ccc(C(=O)CCC(=O)NCCc2c[nH]c3ccccc23)cc1`, for which the cell number change was -14%. Moreover, the AC50 under setting [1] was 3.26 µM [falling, single point].
In the case of `COc1ccc(C(=O)CN2C(=O)c3ccccc3S2(=O)=O)cc1`, the cell number change amounted to 10.9%. For the same compound, under setting [1], the AC50 is 13 µM [rising, partial curve, poor fit].
As to `CC(=O)c1cccc(NC(=O)CN(c2ccccc2)S(C)(=O)=O)c1`, the cell number change came to 11.7%. Further, the AC50 under setting [1] was 2.31 µM [rising, partial curve].
Take `COc1ccc(OC)c(C2C3CN(C(C)C)CC=C3C(C#N)=C(N)C2(C#N)C#N)c1` (centres undefined): the cell number change came to 30.8%. The AC50 under setting [2] is 25.9 µM [rising, partial curve, poor fit].
Regarding `O=C(Nc1cc(SCCO)cc([N+](=O)[O-])c1)c1ccco1`, the cell number change was found to be 27.3%. In addition, under setting [1], the AC50 was 11.6 µM [rising, partial curve].
Regarding `O=C1NC(c2ccco2)Nc2sc3c(c21)CCN(Cc1ccccc1)C3` (centres undefined), the cell number change stood at 89.4%. Moreover, the AC50 under setting [2] was 23.1 µM [rising, single point].
Take `O=C(CSc1nc(-c2ccccc2)c(-c2ccccc2)o1)Nc1nncs1`: the cell number change worked out at 41.8%. The AC50 under setting [2] is 3.66 µM [rising, full curve]. Further, the AC50 under setting [1] is 7.31 µM [rising, partial curve].
For `Cc1cc(C(=O)NC2CCCc3c2cnn3-c2ccc(C)c(C)c2)n(C)n1` (centres undefined), the cell number change was -17.3%. In addition, under setting [2], the AC50 is 0.58 µM [falling, partial curve, poor fit]. In addition, the half-maximal activity concentration (AC50) under setting [1] was 0.92 µM [falling, full curve].
Turning to `Cc1[nH]c2ccccc2c1C(c1ccncc1)N1CCC(C)CC1` (centres undefined), the cell number change was -2.85%.
Same read-out and setting: the figure for `COc1ccc(CC(=O)Nc2ccccc2N2CCOCC2)cc1OC` is 23.3%.
Take `Cc1ccc(NC(=O)c2cc(C)nc3ccccc23)c(Br)c1`: the cell number change is -8.76%. Also, the AC50 under setting [1] is 6.51 µM [rising, single point].
As to `O=C(NCCC1CCCC1)C1CCC(=O)N(CCCN2CCCC2=O)C1` (centres undefined), the AC50 under setting [1] is 6.51 µM [rising, single point].
Regarding `Nc1nc(-c2ccccn2)nc(N)c1Cc1c(F)cccc1Cl`, the cell number change was -63.4%. Also, the AC50 under setting [2] is 29.1 µM [falling, single point].
For the compound `O=C(C1CCC1)N1CCc2cc(S(=O)(=O)NCc3ccccn3)ccc21`, the cell number change turned out to be 2.17%. In addition, the half-maximal activity concentration (AC50) under setting [1] was 0.116 µM [rising, full curve].
Consider `Cc1ccc2nc(C)cc(C(=O)Nc3nccs3)c2c1`, for which the AC50 under setting [1] was 0.0731 µM [rising, partial curve, poor fit].
On to `O=S(=O)(NC1=NCCCCC1)c1ccc(Cl)cc1`, for which the cell number change was -20.6%. Also, the AC50 under setting [1] was 0.58 µM [rising, single point].
For the compound `COc1ccccc1N1CCN(S(=O)(=O)CCNC(=O)c2ccc(OC(C)C)cc2)CC1`, the cell number change was 7.26%.
Same read-out and setting: in the case of `COc1ccc(C(=O)Nc2ccccc2C(=O)NC(Cc2ccc(O)cc2)C(=O)NNC(=O)c2ccccc2)cc1` (centres undefined) it was 8%; in that of `CCN(CC)S(=O)(=O)c1ccc(O)c(C(=O)OCC(=O)N(C)Cc2ccccc2)c1`, -5.56%; in that of `O=C(Cc1ccc(Cl)c(Cl)c1)Nc1cccc(S(=O)(=O)N2CCOCC2)c1`, 25.5%.
With `Cc1c(C)c2cc(Cl)c(O)c(CN3CCCC(C)C3)c2oc1=O` (centres undefined), the cell number change was 148%. The AC50 under setting [2] is 11.6 µM [rising, partial curve].
On to `COc1cc(/C=C2\SC(=S)N(NC(=O)c3cccnc3)C2=O)ccc1O`, for which the cell number change is -97.1%. Besides, the AC50 under setting [2] is 29.1 µM [falling, single point]. Besides, the AC50 under setting [1] was 2.91 µM [falling, partial curve, poor fit].
In the case of `Nc1ccc(-c2nnc(-c3ccccc3)o2)cc1`, the AC50 under setting [1] is 7.31 µM [falling, partial curve, poor fit].
With `COc1ccccc1C1=NN(C(=S)Nc2ccccc2)C(c2ccco2)C1` (centres undefined), the cell number change was found to be 20.5%. Also, the AC50 under setting [1] was 0.517 µM [rising, single point].
For `O=C(Cc1cccs1)N/N=C/c1ccc(OCc2ccccc2)cc1`, the cell number change is -22%. The AC50 under setting [1] was 32.6 µM [falling, single point].
Take `CCOc1ccccc1NC(=O)c1c(Br)cnn1C`: the cell number change was determined as 66.7%. In addition, the AC50 under setting [2] was 29.1 µM [rising, single point].
As for `Cc1[nH]c2ccc3ncccc3c2c1C`, the cell number change is 58.7%. Also, the AC50 under setting [2] is 2.91 µM [rising, full curve]. The AC50 under setting [1] is 2.59 µM [rising, single point].
On to `O=c1c2ccccc2ncn1Cc1ccc2c(c1)OCO2`, for which the cell number change was -2.91%. In addition, the half-maximal activity concentration (AC50) under setting [1] is 5.8 µM [rising, partial curve].
For the compound `O=C(Nc1ccccc1)Nc1snnc1C(=O)Nc1cccc(O)c1`, the cell number change is -31.5%. In addition, the AC50 under setting [2] was 9.2 µM [falling, partial curve, poor fit]. The AC50 under setting [1] is 7.31 µM [falling, partial curve].
Consider `Cc1ccccc1-n1cc(CNCc2c(C(=O)N(C)C)nc3ccc(Cl)cn23)cn1`, for which the cell number change was found to be 13.6%.
With `CCCn1c(=O)c2c(C(F)(F)F)cc(-c3cccs3)nc2n(CCC)c1=O`, the AC50 under setting [1] is 0.00461 µM [rising, full curve, poor fit].
`CCN(CC)S(=O)(=O)c1ccc2c(c1)c(=O)c(C(=O)NCc1cccs1)cn2C`: the cell number change worked out at 4.89%. In addition, the concentration at half-maximal activity (AC50) under setting [1] was 0.517 µM [rising, single point].
Regarding `COc1ccc(-n2nnnc2/C(=C/N(C)C)C(=O)c2ccccc2)cc1`, the cell number change came out at 20.1%.
Same read-out and setting: in the case of `Cc1ccc(NS(=O)(=O)c2cc(NC(=O)c3cc4c(s3)CCCC4)ccc2C)c(C)c1` it was -1.44%.
For `CCOC(=O)c1cccc2c1-c1ccccc1/C2=N/O`, the cell number change is -29.4%. Moreover, the AC50 under setting [1] is 0.13 µM [falling, full curve, poor fit].
Turning to `Cc1cc(N)n(-c2nc(-c3cccnc3)nc3ccccc23)n1`, the cell number change was -8.9%. The concentration at half-maximal activity (AC50) under setting [1] was 2.59 µM [falling, single point].
Take `CCS(=O)(=O)C(=C1NCCO1)S(=O)(=O)CC`: the cell number change is -31.2%. Also, under setting [2], the AC50 is 0.731 µM [falling, full curve]. For the same compound, the AC50 under setting [1] was 3.66 µM [falling, full curve].
In the case of `CC(C)(C)OC(=O)N1CCC[C@H]1c1nnc(SCc2c(F)cccc2Cl)o1`, the cell number change was -2.18%. In addition, the AC50 under setting [1] is 29.1 µM [rising, single point].
`COc1ccccc1NS(=O)(=O)c1cccc(N=C2N=C(N)c3ccccc32)c1`: the cell number change was -9.15%. The AC50 under setting [2] is 6.51 µM [rising, single point]. Also, the AC50 under setting [1] is 0.146 µM [rising, full curve, poor fit].
With `CCC(=O)Nc1nnc(SCC(=O)NC2CCCC2)s1`, the cell number change is -6.58%. The AC50 under setting [1] is 1.12 µM [rising, partial curve].

The term AC50 denotes the concentration at which the activity in the assay is half-maximal.
